Data on one molecule can be found in paper doi:10.1101/2024.03.04.583402.

For this test, the target named is T1, retinoid X receptor α (UniProt P28700).
T1 sequence: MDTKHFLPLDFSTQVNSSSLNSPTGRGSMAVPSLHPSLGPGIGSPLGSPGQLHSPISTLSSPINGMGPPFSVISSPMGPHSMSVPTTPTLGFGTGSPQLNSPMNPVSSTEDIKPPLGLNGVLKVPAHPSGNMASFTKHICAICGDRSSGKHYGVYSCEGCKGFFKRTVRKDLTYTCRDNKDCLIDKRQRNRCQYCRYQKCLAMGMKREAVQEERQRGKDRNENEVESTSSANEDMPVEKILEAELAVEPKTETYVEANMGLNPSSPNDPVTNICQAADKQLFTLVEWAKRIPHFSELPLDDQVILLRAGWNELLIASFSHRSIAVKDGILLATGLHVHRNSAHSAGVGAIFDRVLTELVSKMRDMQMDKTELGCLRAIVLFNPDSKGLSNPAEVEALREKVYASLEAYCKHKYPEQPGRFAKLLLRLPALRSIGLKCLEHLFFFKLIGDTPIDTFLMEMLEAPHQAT
The test is described as follows: co-IP.

No constants are given. Whether binding was seen depends on the method and setting. Binding seen in cells or lysates may run through a third protein. Some results given as binding are weak or reduced against the parent protein; the word gives no strength.

B1: ZBTB9 (protein, UniProt Q8CDC7 1-459)
chain: MDASTPLPPASSSPRCNPAPQTIHIEFPHHSSSLLESLNRHRLEGKFCDVSLLVQGRELRAHKAVLAAASPYFHDKLLLGDAPRLTLPNVIEADAFEGLLQLIYSGSLHLPLDALPAHLLVASGLQMWQVVDRCSEILRELETSGGISAGGRASSLTLISTTSSGGWCIRSSPFQNPVRSSASTENSVLPESPAGGEGSELEGMLQIQVKVEEEEEQGSAAPLFQTPQPERVSGGVSQACGSHPLPTPALPSKPSEDESSTVDPPAPPVQASQILYVNQENVECKEEIARGTKEKTKVLSGEDSEEKEELRYLLSSGGGESSGAGDPSWKPVDLHGNEILSGDGGPGGTGQAMHGPVKLGGTPPADGKCFACLCGKRFAVKPKRDRHIMLTFSLRPFGCGICNKRFKLKHHLTEHMKTHARALHACPHCGRRFRVQAFFLRHRDLCKGQGWPTYHWTYK
Consider B1, for which the binding entry was “binds”.
